Laboratory results published in patent US12618096B2, “Rapid screen for antibiotic resistance and treatment regimen” (priority 2020, dated 2026).
For some of these results: At least one structure is not confirmed: it was looked up by name or label, or the drawing left a doubt. Some entries share one result that the patent states for a list of compounds.

What was measured:
Type in all cases: cell-based
[1] = tested on: Escherichia coli (NCTC 12923); experiment: Bacterial impedance flow cytometry of antimicrobial peptides; settings: E. coli NCTC 12923; supra-inhibitory (High; CAMP 16 μg/ml, melittin 128 μg/ml)
[2] = tested on: Klebsiella pneumoniae (NCTC 13368); experiment: as above; settings: K. pneumoniae NCTC 13368; supra-inhibitory (High; CAMP 16 μg/ml, melittin 128 μg/ml)
Experimental: The method for determining the efficacy of different membrane penetrating peptide antimicrobials is essentially the same as for Example 1. Briefly, colonies are picked from plate carrying bacteria from a clinical sample (e.g. a urine sample from suspected UTI) into Tryptone soy broth (TSB) and incubated for 30 minutes prior to addition of the membrane penetrating peptide antimicrobial preparation. The incubation is typically carried out at 37° C. with shaking. […] The concentrations are selected to span the minimum inhibitory concentration of the two strains, as might be used clinically for an antimicrobial breakpoint determination. Optionally, the bacterial impedance flow cytometry method may be used to generate a measurement of the minimum inhibitory concentration or a fixed concentration is used on the basis of a resistant/susceptible breakpoint. The sample is incubated at 37° C. for 30 or 60 minutes in a static incubator at 37° C. The population at each timepoint is analysed using bacterial impedance flow cytometry and the data collected and analysed to measure both the viable cell number and any migration of the cell population out of a contour enclosing a percentage of a control or untreated population of the same species.
The bacterial impedance of the population was measured. […]

A. baumannii NCTC 10303 = experiment: Resistance profile of bacterial strain
A. baumannii NCTC 13302 = experiment: Resistance profile of bacterial strain
A. baumannii ATCC 17978 = experiment: Resistance profile of bacterial strain
[3] = tested on: A. baumannii ATCC 17978 ColR; experiment: Resistance profile of bacterial strain
P. aeruginosa PAO1 = experiment: Resistance profile of bacterial strain

With `CC[C@H](C)[C@H](NC(=O)CN)C(=O)NCC(=O)N[C@@H](C)C(=O)N[C@H](C(=O)N[C@@H](CC(C)C)C(=O)N[C@@H](CCCCN)C(=O)N[C@H](C(=O)N[C@@H](CC(C)C)C(=O)N[C@H](C(=O)N[C@H](C(=O)NCC(=O)N[C@@H](CC(C)C)C(=O)N1CCC[C@H]1C(=O)N[C@@H](C)C(=O)N[C@@H](CC(C)C)C(=O)N[C@H](C(=O)N[C@@H](CO)C(=O)N[C@@H](Cc1c[nH]c2ccccc12)C(=O)N[C@H](C(=O)N[C@@H](CCCCN)C(=O)N[C@@H](CCCNC(=N)N)C(=O)N[C@@H](CCCCN)C(=O)N[C@@H](CCCNC(=N)N)C(=O)N[C@@H](CCC(N)=O)C(=O)N[C@@H](CCC(N)=O)C(N)=O)[C@@H](C)CC)[C@@H](C)CC)[C@@H](C)O)[C@@H](C)O)C(C)C)C(C)C` [melittin] the “Time of migration of the bacteria out of the contour defined by the untreated population” value [1] was no more than 30 min and the “Time of migration of the bacteria out of the contour defined by the untreated population” value [2] was no more than 30 min.

In the case of `C[C@@H](O)[C@H]1C(=O)N2C(C(=O)O)=C(SCCN=CN)C[C@H]12` [Imipenem], the Resistance profile (A. baumannii NCTC 10303) is reported as “sensitive”, the Resistance profile (A. baumannii NCTC 13302) is reported as “Gentamicin- Resistant; Imipenem -Resistant;” and the Resistance profile (A. baumannii ATCC 17978) is reported as “Sensitive”. The Resistance profile [3] was “Sensitive” and the Resistance profile (P. aeruginosa PAO1) was “Sensitive”.
